Laboratory results: PubChem BioAssay AID743121 (NCATS, 2013)
In all, the deposit lists about 26,000 reagents; this is an unselected part. 167 of them (0.63%) were called active. 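Calls are per gene from RSA p-values that are not deposited; an individual active-marked siRNA can sensitise only weakly.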 The numbers tell different reagents against one gene apart. Further read-outs or replicates are left out here.

- Assay: 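Knock-downs that sensitise breast cancer cells to camptothecin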 (primary screen)
- System: MDA-MB-231 cells, a human breast cancer line
- Reagents: single siRNA against human genes, 20 nM siRNA (0.8 pmol per well)
- Time to read-out: 120 h (drug added 48 h after transfection, read 72 h later)
- Treatment: camptothecin 20 nM (about EC30) for 72 h; vehicle 0.1% DMSO in parallel plates
- Read-out: 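CellTiter-Glo ATP signal, scaled to control siRNA as percent viability; sensitisation given as log2 of untreated divided by camptothecin-treated viability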
- Reading the numbers: log2 vehicle/camptothecin viability: higher = stronger sensitisation to camptothecin
- Rule for the call: 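Each gene scored by redundant siRNA activity (RSA) over its individual siRNA ratios; a gene is called active at p < 0.001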

Gene	reagent	log2 vehicle/camptothecin viability	activity call
ROCK2	1	-0.22	inactive
ROCK2	2	-0.47	inactive
ROCK2	3	-0.13	inactive
ROCK2	4	0.241	inactive
DAGLA	1	-0.168	inactive
DAGLA	2	-0.053	inactive
DAGLA	3	0.0522	inactive
DAGLA	4	-0.00492	inactive
GSTA1	1	-0.168	inactive
GSTA1	2	-0.545	inactive
GSTA1	3	-0.0307	inactive
GSTA1	4	-0.185	inactive
BMAL1	1	-0.0253	inactive
BMAL1	2	-0.0978	inactive
BMAL1	3	-0.197	inactive
BMAL1	4	0.0157	inactive
FES	1	-0.145	inactive
FES	2	-0.348	inactive
FES	3	-0.166	inactive
FES	4	0.275	inactive
NPEPPS	1	0.257	inactive
NPEPPS	2	-0.0729	inactive
NPEPPS	3	0.176	inactive
NPEPPS	4	0.136	inactive
FXR1	1	-0.153	inactive
FXR1	2	-0.0906	inactive
FXR1	3	0.263	inactive
FXR1	4	0.00641	inactive
PNLIPRP3	1	-0.202	inactive
PNLIPRP3	2	-0.0579	inactive
PNLIPRP3	3	-0.0121	inactive
PNLIPRP3	4	-0.158	inactive
COPS6	1	-0.0215	inactive
COPS6	2	-0.308	inactive
COPS6	3	-0.48	inactive
COPS6	4	-0.199	inactive
PPFIA4	1	-0.294	inactive
PPFIA4	2	-0.328	inactive
PPFIA4	3	0.0784	inactive
PPFIA4	4	-0.678	inactive
ADIPOQ	1	-0.312	inactive
ADIPOQ	2	-0.16	inactive
ADIPOQ	3	-0.417	inactive
ADIPOQ	4	-0.0213	inactive
USP14	1	0.322	inactive
USP14	2	0.0273	inactive
USP14	3	-0.0748	inactive
USP14	4	-0.175	inactive

Sorted by “log2 vehicle/camptothecin viability” (ascending): 4 of the entries above
Gene	reagent	log2 vehicle/camptothecin viability	activity call
GSTA1	2	-0.545	inactive
GSTA1	4	-0.185	inactive
GSTA1	3	-0.0307	inactive
BMAL1	1	-0.0253	inactive
